Data on 37 molecules can be found in the supplement of paper PMC12425257.

± gives the standard deviation of the averaged measurements. Some of the results follow.

The subject of the first test is Madurella mycetomatis MM55. As to the kind of experiment: metabolic activity (growth) relative to DMSO growth control; higher = more fungal growth. The settings on record: 1 µM.
With `CN(C)C(=O)/C(C#N)=C/c1ccc(-c2nc3cnc4[nH]ccc4c3n2C2CCCCC2)o1`, the metabolic activity turned out to be 93.7 ± 3.4%. As to `CC(C)(C)S(=O)(=O)c1ccc2nccc(Nc3n[nH]c4ccc(F)cc34)c2c1`, the metabolic activity was 96.8 ± 6.2%. Regarding `COc1cc2ncnc(Nc3ccc(F)c(Cl)c3)c2cc1O[C@H]1CC[C@H](N)CC1`, the metabolic activity came out at 83.2 ± 19%. Turning to `O=C(O)C(F)(F)F.O=C(O)C(F)(F)F.c1cc(CNc2nc3ccc(-c4ccncc4)cc3s2)cc(CN2CCOCC2)c1`, the metabolic activity was found to be 109 ± 36%.

Consider `Cc1c(Cn2c(C)c(C)n3c(=O)cc(N4CCOCC4)nc23)cccc1C(F)(F)F`, for which the metabolic activity was determined as 84.7 ± 10%. The same measure, in the same setting: with `O=C(NOC[C@H](O)CO)c1ccc(F)c(F)c1Nc1ccc(I)cc1F` the figure was 91.6 ± 1%; with `NS(=O)(=O)c1ccc(N/N=C2\C(=O)Nc3ccc(C(=O)NCCc4c[nH]cn4)cc32)cc1`, 90.9 ± 7.5%; with `O=C(c1ccc(-c2cc(-c3c[nH]nc3-c3ccccn3)ccn2)cc1)N1CCCC1`, 103 ± 0.78%. `CN(C)CCNC(=O)Nc1ccc(N(C)c2ccnc(Nc3ccc(CS(C)(=O)=O)cc3)n2)cc1.Cl`: the metabolic activity amounted to 110 ± 44%.

For the molecule `Cc1ccc(NC(=O)Nc2ccccc2F)cc1-c1ccc(C(=O)Nc2ccncc2)cc1`, the metabolic activity amounted to 99.8 ± 35%. Consider `Cl.O=C(Nc1ccc(Oc2ccc3[nH]c(NC(=O)c4ccco4)nc3c2)cc1)Nc1cc(C(F)(F)F)ccc1F`, for which the metabolic activity turned out to be 118 ± 24%. On to `O=S(=O)(NCCNC/C=C/c1ccc(Br)cc1)c1cccc2cnccc12`, for which the metabolic activity was found to be 103 ± 17%. With `COc1cc2ncnc(Nc3cccc(Cl)c3F)c2cc1O[C@H]1CC[C@H]([C@@H]2NCCNC2=O)CC1`, the metabolic activity was 118 ± 2.7%.

In the case of `CN1C(=O)c2ccccc2N(C)c2nc(Nc3cnn(C4CCNCC4)c3)ncc21`, the metabolic activity came out at 113 ± 14%.

On to `Cl.O=C(O[C@H]1CN[C@H](C#Cc2cc3ncnc(Nc4ccc5c(cnn5Cc5ccccc5)c4)c3s2)C1)N1CCOCC1`, for which the metabolic activity turned out to be 94 ± 2.3%. Turning to `CNC(=O)CN1CCC(C(=O)Nc2ncc(SCc3ncc(C(C)(C)C)o3)s2)CC1`, the metabolic activity came to 91.1 ± 2.4%. On to `CCOc1ccc2c(-c3ccnc(Nc4cccc(OC(F)(F)F)c4)n3)cnn2n1`, for which the metabolic activity worked out at 96.9 ± 24%.

On to `CCOc1ccc2c(-c3ccnc(Nc4cc(OC)cc(C(F)(F)F)c4)n3)cnn2n1`, for which the metabolic activity is 119 ± 70%.

As to `CCc1c(-c2nonc2N)nc2c(C#Cc3ccccc3)ccc(N3C[C@H](O)[C@@H](O)C3)n12`, the metabolic activity came out at 94.2 ± 16%. Consider `CN1CCN(Cc2ccc(-c3n[nH]c4c3Cc3ccccc3-4)cc2)CC1`, for which the metabolic activity was 96.2 ± 11%. Take `C[C@H]1CC[C@@H](C(=O)Nc2ccccc2)CN1c1cc(-c2ccc3c(N)n[nH]c3c2)nc(N)n1`: the metabolic activity is 85.9 ± 4.6%. The same measure, in the same setting: the figure for `O=C(Nc1ccccc1)Nc1cccc(Oc2ccc3nccn3n2)c1` is 87.3 ± 35%; for `CN1CCN(Cc2ccc3c(c2)Cc2c(-c4cccs4)n[nH]c2-3)CC1` it is 106 ± 6.2%. For `Fc1ccccc1-c1cc(NCc2cccnc2)n2ncc(Br)c2n1`, the metabolic activity came to 94.8 ± 12%.

Still in this test, the particulars now being: 2 µM.
Consider `O=C(O)C(F)(F)F.O=c1c2cnc(Nc3ccc(N4CCCCC4)cc3)nc2n2ccnc2n1-c1ccccc1Cl`, for which the metabolic activity is 123 ± 18%. Regarding `CCn1c(-c2nonc2N)nc2c(C#CC(C)(C)O)nc(OCCNC)cc21.Cl`, the metabolic activity was determined as 92.4 ± 21%. Regarding `COc1cc(N2CCN(C)CC2)ccc1Nc1ncc2c(n1)N(C)c1ccccc1C(=O)N2`, the metabolic activity was determined as 78.4 ± 2%. Regarding `Cc1ccc(-n2nc(C(C)(C)C)cc2NC(=O)Nc2ccc(OCCN3CCOCC3)cc2)cc1`, the metabolic activity is 103 ± 14%. As to `Cc1ccc2c(-c3ccnc(Nc4ccc5c(c4)OCCO5)n3)c(-c3ccc(C(F)(F)F)cc3)nn2n1`, the metabolic activity is 83.8 ± 29%. Regarding `Cc1nc(Nc2cnn(C3CCNCC3)c2)nc2c1N(C)C(=O)c1cc3ccccc3cc1N2C`, the metabolic activity worked out at 88.6 ± 18%. Turning to `CCn1c2cc(Cl)c(F)cc2c(=O)c2c(=O)o[nH]c21`, the metabolic activity amounted to 91.7 ± 18%. Take `O=C1NC(=O)C(c2c[nH]c3sccc23)=C1c1nc(N2CCN(CCO)CC2)nc2ccccc12`: the metabolic activity was determined as 55 ± 30%. For the molecule `COc1cc(Nc2cnc(C#N)c(O[C@H](C)CN(C)C)n2)ncc1-c1cnn(C)c1`, the metabolic activity turned out to be 73.3 ± 9.8%. On to `CCOc1nc(C(=O)NCc2ccc(S(C)(=O)=O)cc2)cc(N)c1C#N`, for which the metabolic activity was found to be 99.9 ± 18%. Same read-out and setting: the figure for `NS(=O)(=O)c1ccc(Nc2ncc(-c3ccccc3)o2)cc1` is 105 ± 20%; for `Cc1cc(-c2ccc3c(c2)CC[C@@H](N[C@@H](C)c2ccccc2)C3)cnc1N` it is 111 ± 4.3%; for `COc1cc(C2CCNCC2)ccc1Nc1nc(Cc2ccccc2F)n2cnnc2c1C(N)=O.Cl` it is 124 ± 26%.

For the molecule `CN(C)C(=O)/C(C#N)=C/c1ccc(-c2nc3cnc4[nH]ccc4c3n2C2CCCCC2)o1`, the metabolic activity is 118 ± 5.3%. As to `CC(C)(C)S(=O)(=O)c1ccc2nccc(Nc3n[nH]c4ccc(F)cc34)c2c1`, the metabolic activity was determined as 100 ± 25%. For the molecule `COc1cc2ncnc(Nc3ccc(F)c(Cl)c3)c2cc1O[C@H]1CC[C@H](N)CC1`, the metabolic activity came to 89.8 ± 15%. Consider `O=C(O)C(F)(F)F.O=C(O)C(F)(F)F.c1cc(CNc2nc3ccc(-c4ccncc4)cc3s2)cc(CN2CCOCC2)c1`, for which the metabolic activity came to 109 ± 31%. Regarding `Cc1c(Cn2c(C)c(C)n3c(=O)cc(N4CCOCC4)nc23)cccc1C(F)(F)F`, the metabolic activity amounted to 88.8 ± 10%. Regarding `O=C(NOC[C@H](O)CO)c1ccc(F)c(F)c1Nc1ccc(I)cc1F`, the metabolic activity came out at 85.1 ± 4.6%. For `NS(=O)(=O)c1ccc(N/N=C2\C(=O)Nc3ccc(C(=O)NCCc4c[nH]cn4)cc32)cc1`, the metabolic activity worked out at 66.8 ± 12%. Consider `O=C(c1ccc(-c2cc(-c3c[nH]nc3-c3ccccn3)ccn2)cc1)N1CCCC1`, for which the metabolic activity was 97 ± 13%. Consider `CN(C)CCNC(=O)Nc1ccc(N(C)c2ccnc(Nc3ccc(CS(C)(=O)=O)cc3)n2)cc1.Cl`, for which the metabolic activity was determined as 110 ± 5%.

Take `Cc1ccc(NC(=O)Nc2ccccc2F)cc1-c1ccc(C(=O)Nc2ccncc2)cc1`: the metabolic activity was found to be 94.7 ± 1.4%. The same measure, in the same setting: with `Cl.O=C(Nc1ccc(Oc2ccc3[nH]c(NC(=O)c4ccco4)nc3c2)cc1)Nc1cc(C(F)(F)F)ccc1F` the figure was 111.35 ± 0.062%.

Take `O=S(=O)(NCCNC/C=C/c1ccc(Br)cc1)c1cccc2cnccc12`: the metabolic activity was determined as 131 ± 12%. Turning to `COc1cc2ncnc(Nc3cccc(Cl)c3F)c2cc1O[C@H]1CC[C@H]([C@@H]2NCCNC2=O)CC1`, the metabolic activity worked out at 131.6 ± 1.2%.

As to `CN1C(=O)c2ccccc2N(C)c2nc(Nc3cnn(C4CCNCC4)c3)ncc21`, the metabolic activity stood at 124 ± 9.6%. Still for that read-out and setting: the figure for `Cl.O=C(O[C@H]1CN[C@H](C#Cc2cc3ncnc(Nc4ccc5c(cnn5Cc5ccccc5)c4)c3s2)C1)N1CCOCC1` is 92.8 ± 21%. As for `CNC(=O)CN1CCC(C(=O)Nc2ncc(SCc3ncc(C(C)(C)C)o3)s2)CC1`, the metabolic activity came out at 120 ± 9.6%. Regarding `CCOc1ccc2c(-c3ccnc(Nc4cccc(OC(F)(F)F)c4)n3)cnn2n1`, the metabolic activity was 101 ± 46%. Same read-out and setting: with `CCOc1ccc2c(-c3ccnc(Nc4cc(OC)cc(C(F)(F)F)c4)n3)cnn2n1` the figure was 73.12 ± 0.59%. On to `CCc1c(-c2nonc2N)nc2c(C#Cc3ccccc3)ccc(N3C[C@H](O)[C@@H](O)C3)n12`, for which the metabolic activity came out at 100 ± 30%. In the case of `CN1CCN(Cc2ccc(-c3n[nH]c4c3Cc3ccccc3-4)cc2)CC1`, the metabolic activity was found to be 104 ± 39%. Consider `C[C@H]1CC[C@@H](C(=O)Nc2ccccc2)CN1c1cc(-c2ccc3c(N)n[nH]c3c2)nc(N)n1`, for which the metabolic activity was found to be 104 ± 22%.

Consider `O=C(Nc1ccccc1)Nc1cccc(Oc2ccc3nccn3n2)c1`, for which the metabolic activity worked out at 63.4 ± 1.9%. Take `CN1CCN(Cc2ccc3c(c2)Cc2c(-c4cccs4)n[nH]c2-3)CC1`: the metabolic activity is 86.7 ± 32%. `Fc1ccccc1-c1cc(NCc2cccnc2)n2ncc(Br)c2n1`: the metabolic activity is 91.5 ± 9.5%.
